Reference: patent US20060019410A1, “Apparatus, kits and methods for evaluating binding interactions, for detecting and quantifying binding molecules, and for sample preparation” (Qualyst, Inc., priority 2004, published 2006)

By UniProt entry, the sequences of proteins in these tests, tags left out. Residues count along the entry.
UniProt P02768, 25-609: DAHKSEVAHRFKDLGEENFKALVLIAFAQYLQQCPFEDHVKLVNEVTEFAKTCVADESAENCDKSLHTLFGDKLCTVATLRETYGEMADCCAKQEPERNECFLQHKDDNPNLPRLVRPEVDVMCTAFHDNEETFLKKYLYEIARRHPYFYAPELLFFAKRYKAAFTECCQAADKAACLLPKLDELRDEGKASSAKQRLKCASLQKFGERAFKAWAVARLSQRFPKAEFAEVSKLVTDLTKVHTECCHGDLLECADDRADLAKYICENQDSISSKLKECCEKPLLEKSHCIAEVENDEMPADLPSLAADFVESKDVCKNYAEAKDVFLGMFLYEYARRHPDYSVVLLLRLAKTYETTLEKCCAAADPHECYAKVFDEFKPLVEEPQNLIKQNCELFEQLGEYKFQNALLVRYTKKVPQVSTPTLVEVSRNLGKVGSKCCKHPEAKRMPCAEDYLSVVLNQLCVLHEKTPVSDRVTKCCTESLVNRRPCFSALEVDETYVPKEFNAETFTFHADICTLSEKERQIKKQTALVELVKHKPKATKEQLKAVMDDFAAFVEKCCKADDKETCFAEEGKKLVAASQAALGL

Legend:
[1] = target: T1, HSA (Homo sapiens, UniProt P02768); test: percent recovery from HSA with the 96-well ACCUPRO DCC device; type: in vitro ADME
Method: Chemical Analysis. […] For a given sample, the peak areas of the particular drug and its internal standard are measured and a ratio of these two values is determined. The peak area ratio (PAR) of the (+) DCC-extracted sample is divided by its corresponding (−) DCC extracted sample PAR to determine a percent recovery value. This recovery value is not a % HSA bound value.
Preparation of DCC plate. Prepare a DCC filter plate with 5 mg and 10 mg bed sizes as described in Example 1 and 3.
Set-Up of Incubation Study.

[2] = target: T1, HSA; details: 1 μM drug + 1 μM DS in HSA; 10 mg DCC bed

percent recovery (relative ranking) ([1]; HSA, naproxen versus ketorolac): higher percent recovery
percent recovery from HSA ([1]; drug at 1 μM, 5 mg and 10 mg DCC bed, compared with the usual concentrations (217 μM and 0.5 μM)): comparable to values obtained above
DS (dansylsarcosine) PAR in final sample preparation [2]: lower level
Compound: COc1ccc2cc([C@H](C)C(=O)O)ccc2c1 [Naproxen]
